According to US20120289467A1 (UNIVERSITY OF MARYLAND BALTIMORE, published 2012):
These are yes or no findings as the source states them, for the method shown. Some results given as binding are weak or reduced against the parent protein; the word gives no strength.

What was measured:
VE-cadherin fragment [1] = target: T1, VE-cadherin fragment (UniProt P33151 48-477, limits assumed); assay: SPR, VE-cadherin fragment immobilized
T1 construct: also called VE-caherin; immobilized VE-cadherin fragment
T1 sequence (looked up): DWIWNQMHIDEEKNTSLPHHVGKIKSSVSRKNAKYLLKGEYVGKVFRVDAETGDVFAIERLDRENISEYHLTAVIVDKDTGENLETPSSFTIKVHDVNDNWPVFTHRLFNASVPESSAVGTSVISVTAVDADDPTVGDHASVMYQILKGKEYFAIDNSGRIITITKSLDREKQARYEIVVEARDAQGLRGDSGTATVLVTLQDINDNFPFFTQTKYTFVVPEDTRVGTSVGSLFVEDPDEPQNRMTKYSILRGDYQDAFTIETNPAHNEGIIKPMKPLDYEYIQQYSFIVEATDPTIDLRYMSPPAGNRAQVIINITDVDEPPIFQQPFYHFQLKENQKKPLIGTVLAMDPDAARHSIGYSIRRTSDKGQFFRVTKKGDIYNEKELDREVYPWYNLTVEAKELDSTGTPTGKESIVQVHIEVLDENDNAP

VE-cadherin fragment [2] = target: T1, VE-cadherin fragment; assay: plate assay read as absorbance at 450 nm, VE-cad(1-5) concentration varied (0-0.5 µM); format not described in the text
VE-cadherin fragment [3] = target: T1, VE-cadherin fragment; assay: SPR
VE-cadherin fragment [4] = target: T1, VE-cadherin fragment; assay: SPR (BIAcore), VE-cadherin fragment immobilized

In the case of GHRPLDKKREEAPSLRPAPPPISGGGYRCG [(β15-44)2 dimer peptide], the binding (VE-cadherin fragment [1]) is reported as “binds”, the binding (VE-cadherin fragment [2]) is reported as “binds” and the binding (VE-cadherin fragment [3]) is reported as “binds”.

B1: (β15-66)2 dimer peptide (peptide)
peptide: GHRPLDKKREEAPSLRPAPPPISGGGYRARPAKAAATQKKVERKAPDAGGCG
For B1, the binding (VE-cadherin fragment [3]) was “binds”.

In the case of GHRPLDKKREEAPSLRPAPPPISGGGYRARPAKAAATQKKVERKAPDAGG [β15-64 monomeric peptide], the binding (VE-cadherin fragment [4]) is reported as “binds” and the binding (VE-cadherin fragment [3]) is reported as “binds”.

For GHRPLDKKREEAPSLRPAPPPISGGGYR (also called monomeric β15-42) [β15-42 monomeric peptide], the binding (VE-cadherin fragment [4]) was “binds” and the binding (VE-cadherin fragment [3]) was “binds”.
